Source: paper PMC12700102
No constants are given. Whether binding was seen depends on the method and setting. Binding seen in cells or lysates may run through a third protein. Some binding calls cover weakened binding; strength is not graded here.

The chains behind the UniProt entries cited, without tags or fusion partners.
UniProt Q5JSZ5: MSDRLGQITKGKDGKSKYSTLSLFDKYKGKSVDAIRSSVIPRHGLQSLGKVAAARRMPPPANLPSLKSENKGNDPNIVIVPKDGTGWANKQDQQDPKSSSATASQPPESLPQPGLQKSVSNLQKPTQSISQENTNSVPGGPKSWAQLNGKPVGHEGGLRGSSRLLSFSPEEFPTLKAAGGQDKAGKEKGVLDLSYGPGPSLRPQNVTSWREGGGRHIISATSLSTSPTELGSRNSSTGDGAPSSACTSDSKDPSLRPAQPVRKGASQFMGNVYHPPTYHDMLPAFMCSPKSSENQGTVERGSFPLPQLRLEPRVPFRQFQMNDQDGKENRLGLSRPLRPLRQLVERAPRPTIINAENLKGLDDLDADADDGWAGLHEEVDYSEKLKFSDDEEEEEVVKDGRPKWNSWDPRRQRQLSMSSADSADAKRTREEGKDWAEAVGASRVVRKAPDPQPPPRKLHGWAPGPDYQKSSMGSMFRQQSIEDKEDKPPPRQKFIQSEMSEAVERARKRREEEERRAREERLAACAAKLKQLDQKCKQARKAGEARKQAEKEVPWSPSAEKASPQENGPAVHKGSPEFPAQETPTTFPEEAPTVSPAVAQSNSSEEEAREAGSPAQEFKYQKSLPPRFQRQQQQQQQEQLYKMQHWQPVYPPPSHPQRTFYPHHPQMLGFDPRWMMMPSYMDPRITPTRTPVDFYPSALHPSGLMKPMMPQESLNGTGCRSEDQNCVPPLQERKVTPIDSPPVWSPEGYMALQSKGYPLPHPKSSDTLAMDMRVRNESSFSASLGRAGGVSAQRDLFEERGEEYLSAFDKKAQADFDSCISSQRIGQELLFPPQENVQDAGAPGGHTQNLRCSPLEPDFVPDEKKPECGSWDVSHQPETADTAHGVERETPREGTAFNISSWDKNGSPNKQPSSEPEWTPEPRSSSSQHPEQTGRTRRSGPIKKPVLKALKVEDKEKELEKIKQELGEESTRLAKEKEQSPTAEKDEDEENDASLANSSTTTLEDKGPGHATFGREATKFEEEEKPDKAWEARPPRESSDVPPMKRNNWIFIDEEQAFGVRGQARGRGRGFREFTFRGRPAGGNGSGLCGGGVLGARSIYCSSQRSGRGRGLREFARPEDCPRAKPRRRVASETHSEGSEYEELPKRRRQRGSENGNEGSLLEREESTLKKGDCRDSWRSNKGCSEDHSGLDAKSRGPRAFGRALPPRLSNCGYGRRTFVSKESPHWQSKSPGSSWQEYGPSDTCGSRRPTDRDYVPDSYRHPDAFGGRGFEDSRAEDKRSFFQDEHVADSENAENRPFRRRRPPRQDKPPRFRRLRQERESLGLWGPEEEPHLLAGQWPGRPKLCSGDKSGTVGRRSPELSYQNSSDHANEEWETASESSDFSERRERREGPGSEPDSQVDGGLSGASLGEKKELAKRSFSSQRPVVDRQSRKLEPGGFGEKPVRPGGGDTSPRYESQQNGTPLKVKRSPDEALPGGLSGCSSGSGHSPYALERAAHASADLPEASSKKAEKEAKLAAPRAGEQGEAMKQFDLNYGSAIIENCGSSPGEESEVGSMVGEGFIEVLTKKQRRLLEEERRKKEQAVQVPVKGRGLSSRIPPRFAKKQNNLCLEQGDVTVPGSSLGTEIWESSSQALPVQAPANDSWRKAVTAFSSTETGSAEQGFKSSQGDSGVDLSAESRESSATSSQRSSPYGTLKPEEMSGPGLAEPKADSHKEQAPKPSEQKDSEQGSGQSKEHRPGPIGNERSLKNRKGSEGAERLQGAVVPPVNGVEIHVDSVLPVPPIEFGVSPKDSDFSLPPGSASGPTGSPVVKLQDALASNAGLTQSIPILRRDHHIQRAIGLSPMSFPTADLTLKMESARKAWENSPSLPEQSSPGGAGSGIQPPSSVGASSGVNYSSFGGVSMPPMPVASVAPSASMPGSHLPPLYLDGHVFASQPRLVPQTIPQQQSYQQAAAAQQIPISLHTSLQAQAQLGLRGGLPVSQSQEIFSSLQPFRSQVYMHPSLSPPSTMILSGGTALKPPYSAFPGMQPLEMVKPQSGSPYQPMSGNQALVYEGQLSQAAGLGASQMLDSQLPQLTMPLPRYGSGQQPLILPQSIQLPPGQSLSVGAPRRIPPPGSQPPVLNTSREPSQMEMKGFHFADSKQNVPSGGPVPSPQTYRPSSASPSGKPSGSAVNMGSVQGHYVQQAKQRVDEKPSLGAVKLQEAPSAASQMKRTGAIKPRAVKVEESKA
UniProt O15371: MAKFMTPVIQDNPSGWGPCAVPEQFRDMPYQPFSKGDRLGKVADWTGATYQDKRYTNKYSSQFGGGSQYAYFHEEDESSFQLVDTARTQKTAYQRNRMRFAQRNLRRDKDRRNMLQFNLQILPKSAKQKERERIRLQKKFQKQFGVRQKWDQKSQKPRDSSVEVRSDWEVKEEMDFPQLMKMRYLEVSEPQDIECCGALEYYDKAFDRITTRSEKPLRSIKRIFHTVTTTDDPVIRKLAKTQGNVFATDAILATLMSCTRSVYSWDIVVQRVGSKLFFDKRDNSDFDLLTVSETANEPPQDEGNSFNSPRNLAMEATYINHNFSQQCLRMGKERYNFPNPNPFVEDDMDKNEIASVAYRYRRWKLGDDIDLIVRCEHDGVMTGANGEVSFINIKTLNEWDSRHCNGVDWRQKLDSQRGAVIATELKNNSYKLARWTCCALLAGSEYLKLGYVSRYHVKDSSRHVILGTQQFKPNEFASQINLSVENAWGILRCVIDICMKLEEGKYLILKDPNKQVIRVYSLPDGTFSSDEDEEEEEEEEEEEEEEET
UniProt Q99873: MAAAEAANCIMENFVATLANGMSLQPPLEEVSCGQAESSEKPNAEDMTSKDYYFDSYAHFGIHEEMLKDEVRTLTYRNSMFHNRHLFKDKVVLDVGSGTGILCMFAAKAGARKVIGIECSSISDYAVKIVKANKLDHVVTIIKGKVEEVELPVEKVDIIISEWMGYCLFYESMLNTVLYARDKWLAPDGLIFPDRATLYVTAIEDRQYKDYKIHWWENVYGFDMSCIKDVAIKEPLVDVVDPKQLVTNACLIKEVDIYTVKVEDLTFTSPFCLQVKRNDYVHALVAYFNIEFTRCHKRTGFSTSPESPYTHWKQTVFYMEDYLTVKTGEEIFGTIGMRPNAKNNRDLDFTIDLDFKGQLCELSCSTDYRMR

B1: EIF4G2 (protein, UniProt P78344 1-907)
chain: MESAIAEGGASRFSASSGGGGSRGAPQHYPKTAGNSEFLGKTPGQNAQKWIPARSTRRDDNSAANNSANEKERHDAIFRKVRGILNKLTPEKFDKLCLELLNVGVESKLILKGVILLIVDKALEEPKYSSLYAQLCLRLAEDAPNFDGPAAEGQPGQKQSTTFRRLLISKLQDEFENRTRNVDVYDKRENPLLPEEEEQRAIAKIKMLGNIKFIGELGKLDLIHESILHKCIKTLLEKKKRVQLKDMGEDLECLCQIMRTVGPRLDHERAKSLMDQYFARMCSLMLSKELPARIRFLLQDTVELREHHWVPRKAFLDNGPKTINQIRQDAVKDLGVFIPAPMAQGMRSDFFLEGPFMPPRMKMDRDPLGGLADMFGQMPGSGIGTGPGVIQDRFSPTMGRHRSNQLFNGHGGHIMPPTQSQFGEMGGKFMKSQGLSQLYHNQSQGLLSQLQGQSKDMPPRFSKKGQLNADEISLRPAQSFLMNKNQVPKLQPQITMIPPSAQPPRTQTPPLGQTPQLGLKTNPPLIQEKPAKTSKKPPPSKEELLKLTETVVTEYLNSGNANEAVNGVREMRAPKHFLPEMLSKVIILSLDRSDEDKEKASSLISLLKQEGIATSDNFMQAFLNVLDQCPKLEVDIPLVKSYLAQFAARAIISELVSISELAQPLESGTHFPLFLLCLQQLAKLQDREWLTELFQQSKVNMQKMLPEIDQNKDRMLEILEGKGLSFLFPLLKLEKELLKQIKLDPSPQTIYKWIKDNISPKLHVDKGFVNILMTSFLQYISSEVNPPSDETDSSSAPSKEQLEQEKQLLLSFKPVMQKFLHDHVDLQVSALYALQVHCYNSNFPKGMLLRFFVHFYDMEIIEEEAFLAWKEDITQEFPGKGKALFQVNQWLTWLETAEEEESEEEAD

What was measured:
[1] = biological target: PRRC2B-long (PRRC2BL), HA-tagged (human) (UniProt Q5JSZ5); assay: co-IP; as the co-IP without RNase, but RNase A added to the lysate (100 mg/ml in the methods and the legend of Fig. 3, 100 μg/ml in the legend of Fig. 4)
[2] = biological target: PRRC2B-long (PRRC2BL), HA-tagged (human) (UniProt Q5JSZ5); assay: co-IP; HA-tagged PRRC2B constructs transfected 24 h in HEK 293T; buffer B; anti-HA beads 2 h at 4°C, 3 washes; western blot of endogenous partners; without RNase A

Molecule | binding [1] | binding [2]
EIF3D (from UniProt O15371 1-548) | binds | binds
PRMT1 (from UniProt Q99873 1-371) (enzyme) | binds | binds
B1 |  | binds
